PubChem BioAssay AID504467 (National Center for Advancing Translational Sciences (NCATS), 2011)
About 7,700 (2.3%) of roughly 330,000 compounds were called active. This list was built around the results that the source calls inconclusive (neither active nor inactive); the mix of calls is not that of the screen. The call rests on the fitted dose curve; in most records, active means well fitted inhibition curve with a large enough effect; inconclusive means small, poorly fitted or top-dose-only effect, or effect the other way; inactive means flat fitted curve, though single readings scatter. Where the call is inconclusive, the potency comes from a doubtful curve fit.

test: qHTS screen for small molecules that inhibit ELG1-dependent DNA repair in human embryonic kidney (HEK293T) cells expressing luciferase-tagged ELG1; conditions: HEK293T ELG1-luciferase reporter, luminescence, 16 h, DNA damage induced by 5-fluorouridine; series mostly up to 46.1 µM; further: nearly all actives have a fitted effect of over 55% in size
In short: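 Cells (2,000 per well) received 5-fluorouridine plus test compound or DMSO and were incubated 16 hr at 37 °C, 5% CO2. Luciferase activity was read by luminescence 30 min after ONE-Glo addition; signal suppression marked inhibition of damage-induced ELG1 function.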
Potency means the concentration at half of the fitted maximal effect.

SMILES | Potency
CCOC(=O)c1sc(=S)n(-c2cc(OC)ccc2OC)c1N | inactive
CNC(=O)c1cc2c(s1)CCCCCC2 | inconclusive: 16.4 µM [activator, partial curve, poor fit]
CC(=O)c1ccc([N+](=O)[O-])cc1 | inactive
COc1cc(C(=O)NCCN2CCOCC2)cc(OC)c1OC | inconclusive: 32.6 µM [activator, partial curve, poor fit]
COc1ccccc1CNC(=O)COc1ccc(C)cc1 | inactive
CC1=CCC(/C=N\Nc2nnc3c(n2)[nH]c2ccccc23)CC1 (stereo not given) | inconclusive: 18.4 µM [activator, partial curve]
Cc1ccc(S(=O)(=O)NCC(=O)OCC(=O)Nc2ccc(C)c(S(=O)(=O)N3CCOCC3)c2)cc1 | inconclusive: 9.2 µM [activator, partial curve, poor fit]
COc1cccc(NC(=O)c2oc3ccc(S(=O)(=O)N4CCOCC4)cc3c2C)c1 | active: 20.6 µM
CC(C)(C)NC(=O)CCSc1nnc(-c2ccco2)o1 | inconclusive: 20.6 µM [activator, partial curve, poor fit]
C=C(C)CNC(=S)N/N=C(\C)c1ccc(-n2ccnc2)cc1 | inconclusive: 29.1 µM [inhibitor, single point]
Clc1ccc(COc2cccc(CNCc3ccncc3)c2)cc1 | inactive
Cc1c(C(=O)N2CCC2)oc2ccc(Cl)cc12 | inconclusive: 18.3 µM [activator, single point]
CN(C)c1ccc(CNC(=O)CCc2ccc(S(=O)(=O)N3CCCCCC3)cc2)cc1 | inactive
Cc1ccc(S(=O)(=O)N2CCC(=O)N(CCOCc3cccc(C)c3)CC2)cc1 | inactive
CC(=O)Nc1ccc(S(=O)(=O)NCc2ccc3c(c2)cc(C)n3C)cc1 | inconclusive: 20.6 µM [inhibitor, partial curve]
COC(=O)CCNC(=O)c1ccc2nc(Cc3ccc(OC)c(OC)c3)oc2c1 | inconclusive: 18.3 µM [activator, partial curve]
Cc1cc(C)c(-c2csc(NC(=O)C3=NN(c4ccccc4)C(=O)CC3)n2)c(C)c1 | inconclusive: 2.31 µM [inhibitor, full curve]
Cc1cccc(N=C2Sc3nc4c(C)c(C)ccc4cc3CN2CCN2CCOCC2)c1 | active: 9.2 µM
CC(C(=O)N1CCCCC1)N(C)CC(=O)Nc1ccc(Cl)cc1 (stereo not given) | inactive
O=[N+]([O-])c1ccc(C2=NN(CCO)C(=Nc3ccc(OC(F)(F)F)cc3)SC2)cc1 | inactive
Cc1n[nH]c(C)c1CCCCOc1ccccc1 | inconclusive: 29.1 µM [inhibitor, single point]
COc1ccc(C)cc1S(=O)(=O)N1CCCC(C(=O)N2CCN(c3ccccc3F)CC2)C1 (stereo not given) | inconclusive: 29.1 µM [inhibitor, single point]
COc1ccccc1NS(=O)(=O)c1cc(NC(=O)Nc2ccccc2)ccc1N1CCCCC1 | inconclusive: 25.9 µM [activator, single point]

2 entries from above in a different format:
SMILES	Potency
CC(=O)c1ccc([N+](=O)[O-])cc1	inactive
COc1cc(C(=O)NCCN2CCOCC2)cc(OC)c1OC	inconclusive: 32.6 µM [activator, partial curve, poor fit]

Later entries

SMILES | Potency
O=c1c2ccccc2c(/C=N/c2n[nH]c(CCCO)n2)c(O)n1-c1ccccc1Cl | inactive
C=CC[C@@H](CC(=O)OC(C)(C)C)C(=O)OC[C@H]1CCCN1C(=O)[C@@H](CC=C)CC(=O)N[C@H](CO)Cc1ccccc1 | active: 16.4 µM
[O-]/C(=C(\C(=S)Nc1ccc(SC(F)F)cc1)[n+]1cccc(CO)c1)c1ccc(Cl)s1 | inactive
Cc1cc(C(=O)OCC(=O)c2ccc(Br)s2)no1 | inconclusive: 1.26 µM [activator, partial curve, poor fit]
CC(=O)Nc1ccc(N/C=C/C(=O)C(C)(C)C)cc1 | inactive
Cc1cc(Cl)c2oc(C(=O)N(C)CC3CCOCC3)c(C)c2c1 | inconclusive: 29.1 µM [inhibitor, single point]
CCOC(=O)c1[nH]c(C)c(C(=O)Nc2ccc(F)cc2)c1C | inconclusive: 23.1 µM [activator, partial curve, poor fit]
O=C(O)CCNc1cc2ccccc2cc1C(=O)O | inactive
CNc1ccccc1C(=O)OCC(=O)c1ccc(F)cc1 | inconclusive: 18.3 µM [activator, partial curve]
CCOc1ccccc1Nc1nnc(SCC(=O)NCC2CCCO2)s1 (stereo not given) | inactive
O=C(NCCc1ccc(Cl)cc1)c1ccc(CS(=O)Cc2ccc(Cl)cc2)o1 (stereo not given) | inconclusive: 18.3 µM [inhibitor, single point]
COCCn1c(SCC(=O)N2CCc3ccccc3C2)nc2ccccc2c1=O | inconclusive: 16.4 µM [inhibitor, single point]
Cc1cc(NC(=O)CCc2ccccc2)c([N+](=O)[O-])cc1C | inconclusive: 16.4 µM [activator, single point]
CCCn1c(SCC(=O)N2CCc3ccccc3C2)nc2c1c(=O)n(C)c(=O)n2C | inactive
O=C(CSc1nnc(Cc2ccccc2)n1Cc1ccccc1)NCc1ccco1 | inconclusive: 3.26 µM [inhibitor, partial curve, poor fit]
CCCN1Cc2cccc(C(N)=O)c2C1=O | inconclusive: 7.31 µM [inhibitor, partial curve, poor fit]
COc1ccccc1NC(=O)C(C)OC(=O)c1cc2ccccc2[nH]1 (stereo not given) | inconclusive: 23.1 µM [inhibitor, partial curve]
Cc1cc(O)c(C)c(O)c1/C=N/NC(=O)c1cccnc1 | inconclusive: 25.9 µM [inhibitor, partial curve, poor fit]
COc1cc(N2CCCC2)c(OC)cc1/C=c1/sc2nc3ccccc3n2c1=O | inconclusive: 4.61 µM [activator, single point]
CC12CCC(=O)N1c1c(sc3nc(N4CCOCC4)c4c(c13)CCCC4)C(=O)N2 (stereo not given) | inconclusive: 25.9 µM [inhibitor, single point]
COc1ccc(NC(=O)CS(=O)(=O)c2cn(CC(=O)N(C(C)C)C(C)C)c3ccccc23)c(OC)c1 | inconclusive: 6.51 µM [inhibitor, full curve]
Cc1ccc(-c2cc(C(=O)O)c3sc(N4CCCCC4)nc3n2)cc1 | inconclusive: 23.1 µM [activator, partial curve, poor fit]
